# Test results taken from the supplement of paper PMC5949888.
# Most values lie at the floor of the assay. Slopes are relative: functional sequences can read slightly below zero.
# System: Saccharomyces cerevisiae PS128 hsf1 delta, HSF1(1-493) fusion
# Assay: growth estimate (transactivation domain function in HSF1 fusion, heat-shock survival) (a.u. (slope of normalised read count over time)); higher = stronger growth at 37°C, i.e. more transactivation activity
# Conditions: library: random library
row,Substance,growth estimate
1,NVGQPGAAFSLGPYVRGTPT,< -0.25
2,TLMDRIKSWTSGFAIIALLR,< -0.25
3,RSRFSFQRKVLCCAVLNVEP,< -0.25
4,IYCH,< -0.25
5,RSLVEWKPNSRCCMLESRRS,< -0.25
6,RSTSA,< -0.25
7,HQSGH,< -0.25
8,GFVFI,< -0.25
9,NGLYIRPGDPLIFVT,-0.248
10,YDRANQYLKVYLAPWAVLLH,< -0.25
11,PKVGILHVCLGQNPKLPHVW,< -0.25
12,LSSSCFSITNVLYKHNHFLC,< -0.25
13,GMGFSLRPTLRGQPPGSPMG,< -0.25
14,ERGVLELS,< -0.25
15,NLCLSHAEGSYLRLTGAQQL,< -0.25
16,AGEIVGASACRSFGEGRSED,< -0.25
17,GPWSKMDY,< -0.25
18,GTIVGRQVGF,< -0.25
19,HKPGSNLVIIFVGPDASARM,< -0.25
20,RSVHVLGPRRIQRPAPSRRC,< -0.25
21,LCIRKSFQVHVGMTTCSLSR,< -0.25
22,DWGAIY,< -0.25
23,SILSGYLDAT,< -0.25
24,GIIIC,< -0.25
25,RSSEWLSEL,< -0.25
26,GSWPTRKDGS,< -0.25

row,Substance,growth estimate
1,VHWISGGSGEGANTDVGFLI,< -0.25
2,LRTADL,< -0.25
3,ASNAPAIGGSGYRKHVVVRS,< -0.25
4,GGMPWQFSL,-0.174
5,AVLILAWVL,< -0.25
6,CGEQTEG,< -0.25
7,NRSS,< -0.25
8,VWSLGHTQ,< -0.25
9,FGIARSTLIRLRL,< -0.25
10,RIRCGPVASKRTAR,< -0.25
11,SGLCSSTSRAEEGKAQMNCV,< -0.25
12,MCLVEN,< -0.25
13,ELSTLGRMSRFESGAIMTFD,< -0.25
14,RIPRR,-0.25
15,APSGHVKLVGWMPYALTCSD,< -0.25
16,AYGMHAKGITETHDRQKLRP,< -0.25
17,ISRRW,< -0.25
18,TRLIIPGASGALNLLRVKAP,< -0.25
19,KASM,< -0.25
20,CGIRV,< -0.25
21,CTLF,< -0.25
22,RCKTPQTGVIRL,< -0.25
23,IPTTEGLSTNMFLIFGDHVN,< -0.25
24,CEGGGVILVACAPCSEFAPL,< -0.25
25,WQHAGGSLPVH,< -0.25
26,MPTEASSSFQFDLCPVCRQV,< -0.25

row,Substance,growth estimate
1,RGEFMKLACNPFFHKVAACS,< -0.25
2,YRLV,< -0.25
3,RLALPVTLTI,< -0.25
4,VGTSII,< -0.25
5,VSNWIPPILATLGTPPILKS,< -0.25
6,GPGLALVPGIGPGLGSVVQN,< -0.25
7,PMDVAISDNKA,< -0.25
8,VVLGLRR,< -0.25
9,ETVNGSTIIWVC,< -0.25
10,DSITRETAVARAAVTNETHH,< -0.25
11,CTDPFKEYA,< -0.25
12,RESAVGHMAV,< -0.25
13,QGI,< -0.25
14,QGVALTLYIL,< -0.25
15,MACSRGSCNSSI,< -0.25
16,LYGDRTGAESRLTRGTRHGR,< -0.25
17,TNAQVSI,< -0.25
18,APDVMCRCAGVRPLVLR,< -0.25
19,VLADIARYRKRYLARVCHHM,< -0.25
20,ELYHGVALRPEGGRV,< -0.25
21,KRT,< -0.25
22,CTSTAEQ,< -0.25
23,SVSTSARSIALDAAIYKRGL,< -0.25
24,NCRYRSVAFIVTAPTHWQNG,< -0.25
25,LQNQGLVSFLCVPCAILHSN,< -0.25
26,ADSCRIIDSMQDQR,< -0.25

row,Substance,growth estimate
1,TWTYLILDCPYVLFQYYRVK,< -0.25
2,CYPR,< -0.25
3,GIRFAAC,< -0.25
4,RGLLVPREGVEGQW,< -0.25
5,QRIVMVGLRVANDAINHTQF,< -0.25
6,GHIISAQGATLCIKA,< -0.25
7,NLMRLPIRLIEDREDRISNP,< -0.25
8,SPGWVSVVPLRRPWWWCKKS,< -0.25
9,LERLGLDQSVGAATLTL,< -0.25
10,VFGTLAQCRNFEKMWRFM,< -0.25
11,PHLPFRVNHTTCLLRVAFSG,< -0.25
12,VLDISVYGIGTVMSLPAPIV,< -0.25
13,RFGSGAVEARVLYISTCAIS,< -0.25
14,CQLFSVG,< -0.25
15,RTAFNHRRALVYCYHAVRSW,< -0.25
16,PVVCSNSFSTEADEFPGVT,< -0.25
17,MWAREVGVGNAG,< -0.25
18,PWGV,< -0.25
19,PCPAITVRILVEKGVVRNQG,< -0.25
20,LSKKCSLLRQSI,< -0.25
21,QALLRRYHMMCSDSLGRFGA,< -0.25
22,GQSPWCL,< -0.25
23,ASVNHEPLHPETGRCASCVG,< -0.25
24,TDSSERTEWVPLIRSFMDR,< -0.25
25,YSFRNRSGVRSC,-0.248
26,EVE,0.522

row,Substance,growth estimate
1,LVVKDKFRVENTVILNIALM,< -0.25
2,GQMGDLRV,< -0.25
3,SSCRNICAGRDGGGQEPPSD,< -0.25
4,SGVWMH,< -0.25
5,SPEEPGLGIVHGVTATLDSK,< -0.25
6,NGVFGISKLVILLFMTPGAV,< -0.25
7,RPLR,< -0.25
8,LCQVCAFLRWILSC,< -0.25
9,LREGPAD,< -0.25
10,LRRWWTIGGGPFSQVAESTG,< -0.25
11,YGWGLSLVFLESVMWIPRF,-0.229
12,HVGCWDLRQGTR,< -0.25
13,LLLGRHLKAVLLRRSRRTSV,-0.181
14,NQDPYAIIAAHAIAWKRTG,-0.245
15,VGQGIEGWFPGAAARLRGGI,< -0.25
16,VRTSIQGLSGRNSASSGGSD,< -0.25
17,SCTDCTQSPSSDMLGTMPCH,< -0.25
18,WPR,-0.246
19,RYRDHVHF,< -0.25
20,TSTP,< -0.25
21,GTSNSCADQGRSALAHWRRC,< -0.25
22,LLFQWFLTASRERVAAHFCA,< -0.25
23,AMPHGSSGDIGVYLHPKIHT,< -0.25
24,YYPGRERTGESIGSGMTVED,< -0.25
25,KYTYAFTLSVRGLVD,< -0.25
26,GGRP,< -0.25

row,Substance,growth estimate
1,EGGQIP,< -0.25
2,QHRG,< -0.25
3,SFVGLSPIKEDTCEG,< -0.25
4,ILAWF,< -0.25
5,GLLRHSRGESAESPRASSRP,< -0.25
6,MRVVDANIRDDPRLL,< -0.25
7,WRCATWVNIHGPRRFRSRPN,-0.0768
8,WVNGLLWYPGIV,< -0.25
9,ASSAIRNYTDISVTCEHLRR,-0.0374
10,VYISVQVTQTVPRLRILIVV,< -0.25
11,SVVTSREIVIYRSQGRT,< -0.25
12,VRG,< -0.25
13,GGTKSQIMHEWNCR,< -0.25
14,YKYNPFGTLCRLTPSDDWG,< -0.25
15,CLEWVCREGPHRNLLARRVL,< -0.25
16,VRTSHRIRRWFLRWSVTTNS,< -0.25
17,HAQVMLQSTSRFA,< -0.25
18,RRVY,-0.0574
19,LHGVCRAVRGGRVF,< -0.25
20,AEVRRDTPRPTNFPALRAQL,< -0.25
21,IVKRNKTATRGLQDGPVGMW,< -0.25
22,GLNTYNAPS,< -0.25
23,LLRINAQARDIAGQH,< -0.25
24,DRPTPESDLGVMHEGDVTVE,-0.248
25,PAGHYIPFKNES,< -0.25
26,YGSSCPLWTLLYINELWVLQ,< -0.25

row,Substance,growth estimate
1,TPRTCTSRGIPLYPVPVMVP,< -0.25
2,KRRSRACTWKSIKSREQ,< -0.25
3,MASTTRQKQSGRARSSIQSF,< -0.25
4,RSLRISTIVGRNGSSEYSIK,< -0.25
5,LCHSRQNCHIHAAWLQ,< -0.25
6,GQTVVN,< -0.25
7,NVKLVKRSPMQRARIEPSRF,< -0.25
8,PVLTGIGTVRPPALYVAAQM,< -0.25
9,SKKKLSRRVGNKVTGARRVR,< -0.25
10,HPGVRSGTVRVNPVASAAPH,< -0.25
11,IVGPYLGRINGCCVMATRYS,< -0.25
12,GSACGPLEYGLLFRLCRLRP,< -0.25
13,AQDASRIKLYSCRGPMSALL,< -0.25
14,QCKAE,< -0.25
15,NNLEIIVFGSRLEKRPMA,< -0.25
16,RCVCKPGLRCCLRVIVYTQT,< -0.25
17,NYG,< -0.25
18,WCPVIGFSSPQLGTMDLPDT,< -0.25
19,PWMALGVRAQEWSIFRDYQM,< -0.25
20,PTLTGVPNSRYKHTELPIAS,< -0.25
21,CELHFPSTNQSRRDTLEKQV,< -0.25
22,CDGTAA,-0.243
23,NWLTGV,< -0.25
24,PICRLGNTIFNRCNSALLNQ,< -0.25
25,ISRRVSVIMSHRTGRFDACP,< -0.25
26,LKRRGDRLVC,< -0.25

# No new results follow: entries from further up.
row,Substance,growth estimate
4,RGLLVPREGVEGQW,< -0.25
5,QRIVMVGLRVANDAINHTQF,< -0.25
6,GHIISAQGATLCIKA,< -0.25
7,NLMRLPIRLIEDREDRISNP,< -0.25
8,SPGWVSVVPLRRPWWWCKKS,< -0.25
9,LERLGLDQSVGAATLTL,< -0.25
10,VFGTLAQCRNFEKMWRFM,< -0.25
11,PHLPFRVNHTTCLLRVAFSG,< -0.25
12,VLDISVYGIGTVMSLPAPIV,< -0.25
13,RFGSGAVEARVLYISTCAIS,< -0.25
14,CQLFSVG,< -0.25
15,RTAFNHRRALVYCYHAVRSW,< -0.25
16,PVVCSNSFSTEADEFPGVT,< -0.25
17,MWAREVGVGNAG,< -0.25
18,PWGV,< -0.25
19,PCPAITVRILVEKGVVRNQG,< -0.25
20,LSKKCSLLRQSI,< -0.25
21,QALLRRYHMMCSDSLGRFGA,< -0.25
22,GQSPWCL,< -0.25
23,ASVNHEPLHPETGRCASCVG,< -0.25
24,TDSSERTEWVPLIRSFMDR,< -0.25
25,YSFRNRSGVRSC,-0.248
26,EVE,0.522
1,LVVKDKFRVENTVILNIALM,< -0.25
2,GQMGDLRV,< -0.25
3,SSCRNICAGRDGGGQEPPSD,< -0.25
4,SGVWMH,< -0.25
5,SPEEPGLGIVHGVTATLDSK,< -0.25
6,NGVFGISKLVILLFMTPGAV,< -0.25
7,RPLR,< -0.25
8,LCQVCAFLRWILSC,< -0.25
9,LREGPAD,< -0.25
10,LRRWWTIGGGPFSQVAESTG,< -0.25
11,YGWGLSLVFLESVMWIPRF,-0.229
12,HVGCWDLRQGTR,< -0.25
13,LLLGRHLKAVLLRRSRRTSV,-0.181
14,NQDPYAIIAAHAIAWKRTG,-0.245
15,VGQGIEGWFPGAAARLRGGI,< -0.25
16,VRTSIQGLSGRNSASSGGSD,< -0.25
17,SCTDCTQSPSSDMLGTMPCH,< -0.25
18,WPR,-0.246
19,RYRDHVHF,< -0.25
20,TSTP,< -0.25
21,GTSNSCADQGRSALAHWRRC,< -0.25
22,LLFQWFLTASRERVAAHFCA,< -0.25
23,AMPHGSSGDIGVYLHPKIHT,< -0.25
24,YYPGRERTGESIGSGMTVED,< -0.25
25,KYTYAFTLSVRGLVD,< -0.25
26,GGRP,< -0.25
1,EGGQIP,< -0.25
2,QHRG,< -0.25
3,SFVGLSPIKEDTCEG,< -0.25
4,ILAWF,< -0.25
5,GLLRHSRGESAESPRASSRP,< -0.25
6,MRVVDANIRDDPRLL,< -0.25
7,WRCATWVNIHGPRRFRSRPN,-0.0768
8,WVNGLLWYPGIV,< -0.25
9,ASSAIRNYTDISVTCEHLRR,-0.0374
10,VYISVQVTQTVPRLRILIVV,< -0.25

# Carrying on:

row,Substance,growth estimate
1,NDTRVARVWVTIGESYVITV,< -0.25
2,CACALPNSRCLKIQTLPTMR,< -0.25
3,GRREPDSS,< -0.25
4,SHIQATGSERRKRCIVICTR,< -0.25
5,LICT,< -0.25
6,DCAY,< -0.25
7,GALK,< -0.25
8,WPLRVAKARTMKHSCKISRR,< -0.25
9,QPWERQPRCE,< -0.25
10,HGTSF,-0.248
11,LKSGGQSQNAIRRALLFGAN,< -0.25
12,VSLIRYVVSAISMIQPHRSA,< -0.25
13,ASQNVQLNQGSVVRGMGSAW,< -0.25
14,QLTEEVTFRLSAD,< -0.25
15,SVVHTVFTSGQVSCRWRPCG,< -0.25
16,ITGTLPRAMSY,< -0.25
17,KSGSGKAGH,< -0.25
18,YFPKAWPVRAMFRAVYRLRN,< -0.25
19,VSGSTGRAGRGIRRISIIGR,< -0.25
